According to patent publication US20240358735A1, “THERAPEUTIC COMPOSITIONS AND RELATED METHODS” (BOYCE THOMPSON INSTITUTE FOR PLANT RESEARCH, INC., priority 2021, published 2024):

These compounds were tested on Cbr-cest-2 mutants (assay: Comparative metabolomics (HPLC-HRMS) of Cbr-cest-2 mutants versus wildtype C. briggsae (AF16)). Conditions: abundance of the metabolite in Cbr-cest-2 mutants compared to C. briggsae wildtype (AF16).

Compound | Cbr-cest-2 fold over WT (AF16), average of 4 repeats
Nc1ccccc1C(=O)OCC1OC(n2ccc3ccccc32)C(OC(=O)c2ccccc2)C(CP(=O)(O)O)C1O (stereo not shown) [iglu#90] | 0.002597
Nc1ccccc1C(=O)O[C@@H]1O[C@H](COC(=O)c2ccccc2)[C@@H](O)[C@H](OP(=O)(O)O)[C@H]1OC(=O)c1cccnc1 [angl#29] | 0.0008133
C/C=C(\C)C(O)OC1C(CC(=O)c2ccccc2N)OC(COC(=O)C(N)Cc2ccccc2)C(O)C1OP(=O)(O)O (stereo not shown) [angl#34] | 0.01495
Nc1ccccc1C(=O)O[C@@H]1[C@@H](CP(=O)(O)O)[C@H](O)[C@@H](COC(=O)c2ccc(O)cc2)O[C@H]1n1ccc2ccccc21 [iglu#76] | 0.000714
CCC/C=C/C(=O)OCC1OC(OC(=O)c2cccnc2)C(OC(=O)c2cccnc2)C(OP(=O)(O)O)C1O (stereo not shown) [nglu#7] | 0.0002196
NCC(O)c1ccc(O[C@@H]2O[C@H](COC(=O)c3ccccc3N)[C@@H](O)[C@H](OP(=O)(O)O)[C@H]2O)cc1 (stereo partly shown) [oglu#4] | 0.0077
NCCc1ccc(OC2OC(COC(=O)c3ccccc3N)C(O)C(OP(=O)(O)O)C2OC(=O)C(N)Cc2ccccc2)cc1 (stereo not shown) [tyglu#42] | 0.0001883
C/C=C(\C)C(=O)OC1C(Oc2ccc(CCN)cc2)OC(COC(=O)c2ccccc2)C(O)C1OP(=O)(O)O (stereo not shown) [tyglu#26] | 0.01521
O=C(O[C@@H]1[C@@H](OP(=O)(O)O)[C@H](O)[C@@H](COC(=O)c2ccc[nH]2)O[C@H]1n1ccc2ccccc21)c1cccnc1 [iglu#40] | 0.002191
NCC(O)c1ccc(C[C@@H]2O[C@H](COC(=O)c3ccc[nH]3)[C@@H](O)[C@H](OP(=O)(O)O)[C@H]2OC(=O)c2ccccc2N)cc1 (stereo partly shown) [oglu#1401] | 0.01398
NCCc1ccc(O[C@@H]2O[C@H](COC(=O)/C=C/c3c[nH]cn3)[C@@H](O)[C@H](OP(=O)(O)O)[C@H]2OC(=O)c2ccccc2N)cc1 [tyglu#38] | 0.001217
CCCC(=O)OC[C@H]1O[C@@H](n2ccc3ccccc32)[C@H](OC(=O)c2ccccc2N)[C@@H](OP(=O)(O)O)[C@@H]1O [iglu#84] | 0.0001773
CCCCCCCCCCCC(=O)OC[C@H]1O[C@@H](OC(=O)c2ccccc2N)[C@H](OC(=O)c2ccccc2N)[C@@H](OP(=O)(O)O)[C@@H]1O [angl#40] | 0.0007132
